Measurements reported in PubChem BioAssay AID1224830 (NIAID, 2016)

- Assay: 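Host factors that control LPS-induced TNF expression in human macrophages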 (primary screen)
- System: human THP-1 monocytic leukaemia cells, TNF dual-luciferase reporter clone, PMA-differentiated to macrophage-like cells
- Reagents: siRNA pool against human genes, 50 nM
- Timing: LPS for 4 h, given about 3 days after siRNA transfection
- Treatment: bacterial LPS (TLR4 ligand), 10 ng/ml
- Read-out: 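TNF firefly reporter luminescence divided by renilla, normalised to the plate median, then turned into a robust z-score for each replicate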
- Reading the numbers: TNF reporter robust z-score: higher = stronger TNF reporter response to LPS
- Hit rule: 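Each well counts as active if its z-score is over 2.8 or under -1.5; controls are left without a call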
This is an unselected part of about 18,000 reagents tested. About 2,900 of them (16%) count as active. 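Calls are made per well; low scores hint the gene aids the LPS response, high scores that it dampens it.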 Repeated entries: four replicate wells of each siRNA pool. Reagent sequences are not shown.

With BCL2L1 (BCL2 like 1), what does the deposit list?
TNF reporter robust z-score: -1.53; activity call: active

Which result is listed for BCL2L1 (BCL2 like 1)?
TNF reporter robust z-score: -1.08; activity call: inactive

What did the screen give for BCL2L1 (BCL2 like 1)?
TNF reporter robust z-score: -1.37; activity call: inactive

With BCL2L1 (BCL2 like 1), what was measured?
TNF reporter robust z-score: -1.29; activity call: inactive

For GJC2 (gap junction protein gamma 2), what was measured?
TNF reporter robust z-score: -0.53; activity call: inactive

For GJC2 (gap junction protein gamma 2), what does the deposit list?
TNF reporter robust z-score: -0.76; activity call: inactive

With GJC2 (gap junction protein gamma 2), what was measured?
TNF reporter robust z-score: -1.43; activity call: inactive

Which result is listed for GJC2 (gap junction protein gamma 2)?
TNF reporter robust z-score: -1.48; activity call: inactive

What is on record for SMARCB1 (SWI/SNF related BAF chromatin remodeling complex subunit B1)?
TNF reporter robust z-score: -1.41; activity call: inactive

With SMARCB1 (SWI/SNF related BAF chromatin remodeling complex subunit B1), how do the results read?
TNF reporter robust z-score: -0.6; activity call: inactive

What is on record for SMARCB1 (SWI/SNF related BAF chromatin remodeling complex subunit B1)?
TNF reporter robust z-score: -0.95; activity call: inactive

What did the screen give for SMARCB1 (SWI/SNF related BAF chromatin remodeling complex subunit B1)?
TNF reporter robust z-score: -0.12; activity call: inactive

For AGTPBP1 (ATP/GTP binding carboxypeptidase 1), what was measured?
TNF reporter robust z-score: 0.56; activity call: inactive

For AGTPBP1 (ATP/GTP binding carboxypeptidase 1), what was measured?
TNF reporter robust z-score: 0.64; activity call: inactive

With AGTPBP1 (ATP/GTP binding carboxypeptidase 1), how do the results read?
TNF reporter robust z-score: 0.34; activity call: inactive

Which result is listed for AGTPBP1 (ATP/GTP binding carboxypeptidase 1)?
TNF reporter robust z-score: 1.43; activity call: inactive

For SRP14 (signal recognition particle 14), how do the results read?
TNF reporter robust z-score: 0.31; activity call: inactive

With SRP14 (signal recognition particle 14), what was measured?
TNF reporter robust z-score: 0.8; activity call: inactive

What did the screen give for SRP14 (signal recognition particle 14)?
TNF reporter robust z-score: 0.34; activity call: inactive

How did the screen score SRP14 (signal recognition particle 14)?
TNF reporter robust z-score: 2.21; activity call: inactive

What did the screen give for HOXB8 (homeobox B8)?
TNF reporter robust z-score: -0.9; activity call: inactive

With HOXB8 (homeobox B8), how do the results read?
TNF reporter robust z-score: -1.52; activity call: active

What is on record for HOXB8 (homeobox B8)?
TNF reporter robust z-score: -1.22; activity call: inactive

Records above called active, once more:
BCL2L1 (BCL2 like 1) → TNF reporter robust z-score = -1.53; activity call = active
HOXB8 (homeobox B8) → TNF reporter robust z-score = -1.52; activity call = active

The results go on:
What did the screen give for CENPP (centromere protein P)?
TNF reporter robust z-score: -1.65; activity call: active

What is on record for CENPP (centromere protein P)?
TNF reporter robust z-score: 0.11; activity call: inactive

What is on record for CENPP (centromere protein P)?
TNF reporter robust z-score: -0.48; activity call: inactive

For CENPP (centromere protein P), how do the results read?
TNF reporter robust z-score: -1.02; activity call: inactive

For C3orf52 (chromosome 3 open reading frame 52), what was measured?
TNF reporter robust z-score: 0.22; activity call: inactive

How did the screen score C3orf52 (chromosome 3 open reading frame 52)?
TNF reporter robust z-score: 0.02; activity call: inactive

How did the screen score C3orf52 (chromosome 3 open reading frame 52)?
TNF reporter robust z-score: -0.56; activity call: inactive

What is on record for C3orf52 (chromosome 3 open reading frame 52)?
TNF reporter robust z-score: -0.94; activity call: inactive

With LPAR4 (lysophosphatidic acid receptor 4), how do the results read?
TNF reporter robust z-score: -1.49; activity call: inactive

What did the screen give for LPAR4 (lysophosphatidic acid receptor 4)?
TNF reporter robust z-score: -0.39; activity call: inactive

For LPAR4 (lysophosphatidic acid receptor 4), what was measured?
TNF reporter robust z-score: -1.22; activity call: inactive

With LPAR4 (lysophosphatidic acid receptor 4), what does the deposit list?
TNF reporter robust z-score: 0.24; activity call: inactive

With SRRM3 (serine/arginine repetitive matrix 3), how do the results read?
TNF reporter robust z-score: -0.95; activity call: inactive

What did the screen give for SRRM3 (serine/arginine repetitive matrix 3)?
TNF reporter robust z-score: -0.97; activity call: inactive

For SRRM3 (serine/arginine repetitive matrix 3), what does the deposit list?
TNF reporter robust z-score: -0.18; activity call: inactive

For SRRM3 (serine/arginine repetitive matrix 3), how do the results read?
TNF reporter robust z-score: -0.69; activity call: inactive

How did the screen score EEF1G (eukaryotic translation elongation factor 1 gamma)?
TNF reporter robust z-score: 0.31; activity call: inactive

How did the screen score EEF1G (eukaryotic translation elongation factor 1 gamma)?
TNF reporter robust z-score: 2.15; activity call: inactive

What did the screen give for EEF1G (eukaryotic translation elongation factor 1 gamma)?
TNF reporter robust z-score: 0.8; activity call: inactive

Which result is listed for EEF1G (eukaryotic translation elongation factor 1 gamma)?
TNF reporter robust z-score: 0.29; activity call: inactive

What is on record for FGGY (FGGY carbohydrate kinase domain containing)?
TNF reporter robust z-score: 0; activity call: inactive

How did the screen score FGGY (FGGY carbohydrate kinase domain containing)?
TNF reporter robust z-score: -0.03; activity call: inactive

For FGGY (FGGY carbohydrate kinase domain containing), what does the deposit list?
TNF reporter robust z-score: 0.9; activity call: inactive

How did the screen score FGGY (FGGY carbohydrate kinase domain containing)?
TNF reporter robust z-score: 0.64; activity call: inactive
